No constants are given. Whether binding was seen depends on the method and setting. In cells and extracts the contact can be indirect. A result given as binding can be weak or reduced; the word gives no strength. For some assays here: Sequences can lack the tags named with a protein.
T1: GST-tagged Synd, column-bound (construct with the SH3 domain) (Drosophila) (UniProt Q9VDI1)
T1 sequence: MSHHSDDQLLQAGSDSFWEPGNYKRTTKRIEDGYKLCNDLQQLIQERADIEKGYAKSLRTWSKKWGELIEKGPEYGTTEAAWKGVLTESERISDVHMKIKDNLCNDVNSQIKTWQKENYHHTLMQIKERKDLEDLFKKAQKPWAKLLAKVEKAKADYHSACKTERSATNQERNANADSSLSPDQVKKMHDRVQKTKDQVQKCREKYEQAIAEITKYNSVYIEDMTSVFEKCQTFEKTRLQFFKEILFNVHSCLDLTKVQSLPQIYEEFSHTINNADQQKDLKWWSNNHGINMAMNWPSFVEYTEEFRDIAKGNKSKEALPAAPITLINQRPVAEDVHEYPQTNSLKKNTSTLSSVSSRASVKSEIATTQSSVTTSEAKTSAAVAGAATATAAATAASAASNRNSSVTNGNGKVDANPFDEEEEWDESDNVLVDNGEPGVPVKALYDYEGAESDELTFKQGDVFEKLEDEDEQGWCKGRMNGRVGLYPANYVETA

The chains behind the UniProt entries cited, without tags or fusion partners. Where a name states a change or a piece, a line headed by the entry shows the natural chain unless it says otherwise.
UniProt P27619: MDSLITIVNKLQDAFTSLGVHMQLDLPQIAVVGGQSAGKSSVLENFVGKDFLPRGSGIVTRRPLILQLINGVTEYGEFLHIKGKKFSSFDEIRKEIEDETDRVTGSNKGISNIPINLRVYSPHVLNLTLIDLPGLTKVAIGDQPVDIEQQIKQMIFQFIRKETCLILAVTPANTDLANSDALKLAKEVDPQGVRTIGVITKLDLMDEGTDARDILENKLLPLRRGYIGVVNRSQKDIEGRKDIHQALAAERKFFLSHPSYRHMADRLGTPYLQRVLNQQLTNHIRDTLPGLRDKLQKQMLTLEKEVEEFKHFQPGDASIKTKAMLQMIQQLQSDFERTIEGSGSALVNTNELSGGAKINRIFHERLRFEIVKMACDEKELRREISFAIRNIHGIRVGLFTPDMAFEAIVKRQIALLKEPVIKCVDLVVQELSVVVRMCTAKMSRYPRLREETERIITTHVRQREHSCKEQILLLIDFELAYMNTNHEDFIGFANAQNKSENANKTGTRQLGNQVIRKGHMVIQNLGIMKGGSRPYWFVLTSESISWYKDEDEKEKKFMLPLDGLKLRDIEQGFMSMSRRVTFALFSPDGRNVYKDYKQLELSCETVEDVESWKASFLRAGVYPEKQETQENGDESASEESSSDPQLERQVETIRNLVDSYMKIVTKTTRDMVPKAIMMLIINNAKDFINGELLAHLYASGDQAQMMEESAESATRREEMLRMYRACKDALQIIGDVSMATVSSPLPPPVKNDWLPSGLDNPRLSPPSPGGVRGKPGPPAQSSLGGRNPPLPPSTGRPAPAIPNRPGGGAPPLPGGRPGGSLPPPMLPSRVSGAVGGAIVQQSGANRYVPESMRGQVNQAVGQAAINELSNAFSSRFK

B1: Drosophila syndapin (Synd), endogenous (protein, UniProt Q9VDI1 1-494)
chain: T1 sequence

Experiments:
[1] = target: T1, GST-tagged Synd, column-bound (construct with the SH3 domain) (Drosophila); assay: pull-down; GST-tagged domains of Synd or GST on Glutathione sepharose beads, incubated with fly head lysate 1 h at 4 °C; 20 mM Tris Cl pH 7.5, 100 mM NaCl, 0.5% NP40, 0.5 mM EDTA; western blot with anti-Wsp antibody; only the target purified
[2] = target: GST-shibire PRD (proline-rich domain of Drosophila dynamin) (Drosophila) (UniProt P27619); assay: pull-down; GST-Shi-PRD immobilized on glutathione-sepharose beads, incubated with Drosophila adult head lysate 1 h at 4 °C; 20 mM Tris Cl pH 7.5, 100 mM NaCl, 0.5% NP40, 0.5 mM EDTA; western blot with anti-Synd antibody; only the target purified

| Molecule | binding [1] | binding [2] |
| --- | --- | --- |
| Drosophila WASp (Wsp), endogenous | binds | – |
| B1 | – | binds |

Source: paper PMC2697329
